Results from the supplement of paper PMC12595434, “Development of retinoid nuclear receptor pathway antagonists through targeting aldehyde dehydrogenase 1A3” (iScience, 2025).
This is one part of the list. The data scatter; read single values as rough.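 Tm was set to 64 °C where no melting was found, and many curves are irregular.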

The chains behind the UniProt entries cited, without tags or fusion partners. Where a name states a change or a piece, a line headed by the entry shows the natural chain unless it says otherwise.
UniProt Q8IZP0: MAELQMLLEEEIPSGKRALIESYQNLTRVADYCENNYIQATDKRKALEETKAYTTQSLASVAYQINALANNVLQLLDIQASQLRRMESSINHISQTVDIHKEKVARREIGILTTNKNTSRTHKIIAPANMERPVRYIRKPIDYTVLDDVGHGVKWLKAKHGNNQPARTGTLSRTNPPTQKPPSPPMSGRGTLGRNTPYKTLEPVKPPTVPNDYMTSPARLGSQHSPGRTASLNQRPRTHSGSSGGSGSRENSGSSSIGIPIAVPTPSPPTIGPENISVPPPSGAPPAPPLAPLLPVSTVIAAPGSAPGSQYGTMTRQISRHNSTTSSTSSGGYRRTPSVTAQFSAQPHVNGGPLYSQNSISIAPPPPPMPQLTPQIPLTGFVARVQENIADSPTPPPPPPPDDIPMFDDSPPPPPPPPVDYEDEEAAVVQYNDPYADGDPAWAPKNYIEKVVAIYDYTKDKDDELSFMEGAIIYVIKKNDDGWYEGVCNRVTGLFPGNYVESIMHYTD
UniProt Q8IWS0: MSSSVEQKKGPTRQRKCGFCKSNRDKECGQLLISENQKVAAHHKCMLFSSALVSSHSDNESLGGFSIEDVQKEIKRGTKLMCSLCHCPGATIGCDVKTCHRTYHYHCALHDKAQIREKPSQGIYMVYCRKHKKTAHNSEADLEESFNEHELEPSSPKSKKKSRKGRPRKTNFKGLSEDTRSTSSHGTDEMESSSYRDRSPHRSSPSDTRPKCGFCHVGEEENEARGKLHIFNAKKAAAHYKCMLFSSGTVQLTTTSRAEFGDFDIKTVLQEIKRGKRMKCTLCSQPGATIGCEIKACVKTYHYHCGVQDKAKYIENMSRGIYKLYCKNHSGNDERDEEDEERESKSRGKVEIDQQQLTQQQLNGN
UniProt Q8IXU6: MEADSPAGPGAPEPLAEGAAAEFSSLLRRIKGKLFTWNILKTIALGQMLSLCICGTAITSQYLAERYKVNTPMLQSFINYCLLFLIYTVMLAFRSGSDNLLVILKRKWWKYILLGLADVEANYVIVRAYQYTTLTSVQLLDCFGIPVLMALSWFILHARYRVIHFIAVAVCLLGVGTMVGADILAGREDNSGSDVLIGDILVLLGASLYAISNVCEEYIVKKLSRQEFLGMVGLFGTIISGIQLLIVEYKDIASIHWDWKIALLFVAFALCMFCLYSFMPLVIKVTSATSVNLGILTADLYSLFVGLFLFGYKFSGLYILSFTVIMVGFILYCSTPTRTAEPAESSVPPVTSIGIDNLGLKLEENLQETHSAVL
UniProt Q8N157: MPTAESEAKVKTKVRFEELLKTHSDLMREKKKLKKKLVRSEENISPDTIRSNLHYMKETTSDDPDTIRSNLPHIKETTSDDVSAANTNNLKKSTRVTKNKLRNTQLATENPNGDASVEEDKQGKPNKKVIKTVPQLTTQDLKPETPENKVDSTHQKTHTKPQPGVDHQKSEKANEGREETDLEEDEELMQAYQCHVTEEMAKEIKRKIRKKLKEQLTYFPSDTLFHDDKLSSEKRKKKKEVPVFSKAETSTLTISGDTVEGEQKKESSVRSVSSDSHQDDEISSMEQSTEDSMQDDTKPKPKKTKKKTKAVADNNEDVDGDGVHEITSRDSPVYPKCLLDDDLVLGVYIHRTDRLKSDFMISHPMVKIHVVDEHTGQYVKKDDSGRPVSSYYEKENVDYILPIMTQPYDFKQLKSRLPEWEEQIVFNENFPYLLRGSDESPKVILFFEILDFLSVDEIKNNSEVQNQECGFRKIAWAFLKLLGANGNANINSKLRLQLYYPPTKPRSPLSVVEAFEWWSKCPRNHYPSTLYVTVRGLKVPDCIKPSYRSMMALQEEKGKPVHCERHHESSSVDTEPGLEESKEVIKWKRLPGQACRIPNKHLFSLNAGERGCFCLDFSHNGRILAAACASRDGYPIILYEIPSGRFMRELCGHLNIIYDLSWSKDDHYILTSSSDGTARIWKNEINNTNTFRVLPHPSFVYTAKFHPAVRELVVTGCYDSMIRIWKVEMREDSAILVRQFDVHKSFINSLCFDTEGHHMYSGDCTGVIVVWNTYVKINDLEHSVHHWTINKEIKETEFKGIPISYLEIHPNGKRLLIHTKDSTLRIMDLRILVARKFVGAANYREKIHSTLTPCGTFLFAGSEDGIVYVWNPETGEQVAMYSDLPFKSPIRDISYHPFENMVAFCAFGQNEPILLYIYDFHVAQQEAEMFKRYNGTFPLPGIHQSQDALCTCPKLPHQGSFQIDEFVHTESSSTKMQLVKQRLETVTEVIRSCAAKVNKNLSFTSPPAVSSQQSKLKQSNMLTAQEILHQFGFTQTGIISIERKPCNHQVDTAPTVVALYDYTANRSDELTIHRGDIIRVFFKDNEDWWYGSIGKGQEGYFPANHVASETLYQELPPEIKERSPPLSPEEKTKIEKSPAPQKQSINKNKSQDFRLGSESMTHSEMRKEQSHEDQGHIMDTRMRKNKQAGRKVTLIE
UniProt Q8IVV7: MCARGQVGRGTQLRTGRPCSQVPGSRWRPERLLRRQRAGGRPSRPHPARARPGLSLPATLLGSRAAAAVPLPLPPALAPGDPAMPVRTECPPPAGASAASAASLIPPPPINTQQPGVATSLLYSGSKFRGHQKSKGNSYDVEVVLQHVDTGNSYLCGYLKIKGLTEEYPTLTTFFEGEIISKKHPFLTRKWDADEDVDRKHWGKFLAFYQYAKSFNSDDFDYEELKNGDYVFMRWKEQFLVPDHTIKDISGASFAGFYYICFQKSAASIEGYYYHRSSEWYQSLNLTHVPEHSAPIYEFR
UniProt Q86X27: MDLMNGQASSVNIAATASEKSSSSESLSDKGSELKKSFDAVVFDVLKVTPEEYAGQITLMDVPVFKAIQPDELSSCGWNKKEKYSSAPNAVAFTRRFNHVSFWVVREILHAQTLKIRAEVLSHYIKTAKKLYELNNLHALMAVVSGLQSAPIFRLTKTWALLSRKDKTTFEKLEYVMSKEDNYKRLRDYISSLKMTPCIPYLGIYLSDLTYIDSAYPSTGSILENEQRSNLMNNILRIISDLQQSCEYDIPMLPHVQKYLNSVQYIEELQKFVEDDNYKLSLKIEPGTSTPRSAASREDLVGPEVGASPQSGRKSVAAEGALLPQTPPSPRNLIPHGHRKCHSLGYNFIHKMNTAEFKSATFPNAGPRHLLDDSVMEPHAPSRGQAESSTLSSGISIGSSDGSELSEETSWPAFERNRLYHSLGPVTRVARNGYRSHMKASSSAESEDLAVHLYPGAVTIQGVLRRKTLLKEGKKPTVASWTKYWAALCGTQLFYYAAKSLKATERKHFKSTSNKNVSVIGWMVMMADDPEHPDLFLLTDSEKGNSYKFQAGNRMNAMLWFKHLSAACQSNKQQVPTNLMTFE
UniProt Q8N3E9: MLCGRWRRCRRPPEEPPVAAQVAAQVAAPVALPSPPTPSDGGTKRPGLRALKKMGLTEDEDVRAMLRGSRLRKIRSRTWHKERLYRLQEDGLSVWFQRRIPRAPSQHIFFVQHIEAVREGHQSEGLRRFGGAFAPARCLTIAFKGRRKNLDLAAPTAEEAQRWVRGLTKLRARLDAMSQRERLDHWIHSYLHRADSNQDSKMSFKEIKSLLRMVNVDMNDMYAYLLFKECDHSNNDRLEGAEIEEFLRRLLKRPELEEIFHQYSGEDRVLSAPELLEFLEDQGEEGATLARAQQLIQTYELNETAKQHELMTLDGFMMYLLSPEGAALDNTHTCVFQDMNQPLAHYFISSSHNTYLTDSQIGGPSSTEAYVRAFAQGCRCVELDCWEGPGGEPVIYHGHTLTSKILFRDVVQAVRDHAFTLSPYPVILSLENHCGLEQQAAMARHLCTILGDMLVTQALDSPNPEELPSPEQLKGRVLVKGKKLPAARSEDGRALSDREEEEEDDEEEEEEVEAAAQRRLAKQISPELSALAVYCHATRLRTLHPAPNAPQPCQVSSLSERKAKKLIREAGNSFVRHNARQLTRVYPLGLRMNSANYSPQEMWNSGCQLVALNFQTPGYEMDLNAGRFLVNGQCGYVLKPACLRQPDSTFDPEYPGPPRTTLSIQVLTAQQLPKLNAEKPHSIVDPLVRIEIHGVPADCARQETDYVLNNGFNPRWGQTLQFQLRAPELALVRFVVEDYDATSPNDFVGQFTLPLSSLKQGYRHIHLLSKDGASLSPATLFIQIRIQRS
UniProt Q8IWA4: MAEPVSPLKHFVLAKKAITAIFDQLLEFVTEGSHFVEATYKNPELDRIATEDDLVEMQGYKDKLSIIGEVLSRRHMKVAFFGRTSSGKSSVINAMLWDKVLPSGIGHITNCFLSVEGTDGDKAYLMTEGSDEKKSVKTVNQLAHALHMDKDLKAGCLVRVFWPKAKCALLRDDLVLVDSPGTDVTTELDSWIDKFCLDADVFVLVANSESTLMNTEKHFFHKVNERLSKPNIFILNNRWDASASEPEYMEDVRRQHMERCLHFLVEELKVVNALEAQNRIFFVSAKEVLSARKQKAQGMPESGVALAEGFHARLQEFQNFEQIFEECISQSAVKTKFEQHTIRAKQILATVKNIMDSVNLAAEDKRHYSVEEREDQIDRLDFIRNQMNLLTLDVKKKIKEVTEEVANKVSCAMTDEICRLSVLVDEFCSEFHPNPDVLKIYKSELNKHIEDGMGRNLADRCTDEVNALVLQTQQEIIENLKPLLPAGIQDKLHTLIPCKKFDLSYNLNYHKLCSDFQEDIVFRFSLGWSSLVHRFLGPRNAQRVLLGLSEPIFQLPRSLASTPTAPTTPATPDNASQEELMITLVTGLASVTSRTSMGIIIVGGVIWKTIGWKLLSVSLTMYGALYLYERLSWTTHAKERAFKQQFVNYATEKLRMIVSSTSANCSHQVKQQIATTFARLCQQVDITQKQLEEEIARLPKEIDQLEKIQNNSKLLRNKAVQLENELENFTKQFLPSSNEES
UniProt Q86WR7: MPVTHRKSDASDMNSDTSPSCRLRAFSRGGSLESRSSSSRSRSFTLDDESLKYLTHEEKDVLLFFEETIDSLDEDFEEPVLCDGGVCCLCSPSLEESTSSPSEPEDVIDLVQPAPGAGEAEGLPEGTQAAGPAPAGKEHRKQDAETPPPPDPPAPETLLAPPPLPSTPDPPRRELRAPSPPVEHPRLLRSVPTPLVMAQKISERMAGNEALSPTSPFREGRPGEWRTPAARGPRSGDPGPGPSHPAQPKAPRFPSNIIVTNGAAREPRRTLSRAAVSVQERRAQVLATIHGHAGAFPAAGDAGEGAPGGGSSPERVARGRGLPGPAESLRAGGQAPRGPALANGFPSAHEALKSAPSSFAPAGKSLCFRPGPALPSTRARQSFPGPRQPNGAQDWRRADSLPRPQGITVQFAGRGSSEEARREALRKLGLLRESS
UniProt Q86XE0: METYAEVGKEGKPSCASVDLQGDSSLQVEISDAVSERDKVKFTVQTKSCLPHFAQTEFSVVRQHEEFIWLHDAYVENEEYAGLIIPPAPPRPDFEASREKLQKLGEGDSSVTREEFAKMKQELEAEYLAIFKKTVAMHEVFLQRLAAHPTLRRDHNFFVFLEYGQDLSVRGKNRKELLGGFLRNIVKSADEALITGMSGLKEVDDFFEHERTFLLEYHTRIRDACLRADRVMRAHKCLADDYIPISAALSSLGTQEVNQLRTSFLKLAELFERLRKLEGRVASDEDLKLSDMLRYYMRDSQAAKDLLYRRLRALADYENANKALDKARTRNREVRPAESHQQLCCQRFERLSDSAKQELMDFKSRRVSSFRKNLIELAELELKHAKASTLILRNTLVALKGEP
UniProt Q86WJ1: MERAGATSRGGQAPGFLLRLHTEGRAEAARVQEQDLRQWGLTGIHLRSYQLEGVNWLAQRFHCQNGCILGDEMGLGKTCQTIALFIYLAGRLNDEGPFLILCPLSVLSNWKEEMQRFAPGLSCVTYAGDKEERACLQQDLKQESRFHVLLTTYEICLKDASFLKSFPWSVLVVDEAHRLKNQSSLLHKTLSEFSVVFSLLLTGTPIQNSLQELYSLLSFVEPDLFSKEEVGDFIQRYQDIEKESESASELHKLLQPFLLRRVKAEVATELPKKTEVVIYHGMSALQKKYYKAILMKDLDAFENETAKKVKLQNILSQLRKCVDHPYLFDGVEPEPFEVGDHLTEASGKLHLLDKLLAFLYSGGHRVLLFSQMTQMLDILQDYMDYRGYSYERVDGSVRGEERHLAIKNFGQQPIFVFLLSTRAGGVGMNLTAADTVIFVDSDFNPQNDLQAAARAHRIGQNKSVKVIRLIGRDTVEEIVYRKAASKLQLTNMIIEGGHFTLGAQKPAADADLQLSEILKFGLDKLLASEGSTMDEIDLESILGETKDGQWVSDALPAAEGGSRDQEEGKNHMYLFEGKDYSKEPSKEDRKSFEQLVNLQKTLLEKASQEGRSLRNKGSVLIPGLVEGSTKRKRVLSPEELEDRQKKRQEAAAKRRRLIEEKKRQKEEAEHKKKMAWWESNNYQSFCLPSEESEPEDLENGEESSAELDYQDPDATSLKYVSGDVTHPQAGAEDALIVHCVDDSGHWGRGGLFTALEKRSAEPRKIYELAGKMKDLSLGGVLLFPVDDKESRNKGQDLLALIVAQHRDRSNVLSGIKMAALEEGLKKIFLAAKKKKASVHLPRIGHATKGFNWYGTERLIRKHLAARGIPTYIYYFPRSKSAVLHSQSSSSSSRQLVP

Compound: CCc1cnccc1C(=O)Nc1cc2c(cc1F)NC(=O)CC2
Experiment: melting temperature shift (DMSO Tm minus MBE1-treated Tm) in cellular thermal proteome profiling; higher = less thermal stabilization by MBE1 (negative = stabilized by MBE1)
Conditions: A375

Row | Target | melting temperature shift (MBE1 concentration: 100 nM) | melting temperature shift (MBE1 concentration: 1 uM)
1 | STX12 (UniProt Q86Y82) | -4.66 °C | -4.61 °C
2 | ABI1 (UniProt Q8IZP0) | 0.672 °C | -0.0855 °C
3 | AMZ2 (UniProt Q86W34) | -0.71 °C | -1.13 °C
4 | UniProt Q8N5F7 | -4.47 °C | 2.86 °C
5 | CHERP (UniProt Q8IWX8) | -0.404 °C | -0.288 °C
6 | WDFY3 (UniProt Q8IZQ1) | -2.72 °C | -0.531 °C
7 | UniProt Q8N1G0 | -0.601 °C | -0.545 °C
8 | UniProt Q8N0Z3 | 1.06 °C | -0.403 °C
9 | VPS52 (UniProt Q8N1B4) | -0.856 °C | -0.889 °C
10 | UniProt Q8N4N3 | -1.45 °C | -0.39 °C
11 | PHF6 (UniProt Q8IWS0) | -0.442 °C | -1.5 °C
12 | RPAP2 (UniProt Q8IXW5) | -0.4 °C | -0.193 °C
13 | NCAPG2 (UniProt Q86XI2) | -0.92 °C | -0.356 °C
14 | Q8IXS6 (UniProt Q9Y2D5) | -1.6 °C | 0.821 °C
15 | VPS8 (UniProt Q8N3P4) | 1.83 °C | 1.53 °C
16 | UniProt Q8IXU6 | -0.502 °C | 1.12 °C
17 | MB21D2 (UniProt Q8IYB1) | 0.647 °C | 2.23 °C
18 | TMEM199 (UniProt Q8N511) | -0.946 °C | 0.434 °C
19 | UniProt Q8N0Y2 | -4.05 °C | -0.751 °C
20 | UniProt Q8N157 | -3.71 °C | 1.23 °C
21 | UniProt Q8N5Z0 | -1.05 °C | 0.525 °C
22 | PELP1 (UniProt Q8IZL8) | -1.31 °C | -1.64 °C
23 | UniProt Q8IVV7 | -1.17 °C | -0.293 °C
24 | PLD3 (UniProt Q8IV08) | -2.5 °C | 0.159 °C

Row | Target | melting temperature shift (MBE1 concentration: 100 nM) | melting temperature shift (MBE1 concentration: 1 uM)
25 | STAG2 (UniProt Q8N3U4) | -0.604 °C | 0.415 °C
26 | NUP93 (UniProt Q8N1F7) | 1.03 °C | 0.69 °C
27 | UniProt Q8N5Z5 | -0.221 °C | 0.771 °C
28 | HSCB (UniProt Q8IWL3) | -1.22 °C | 0.584 °C
29 | EXOC8 (UniProt Q8IYI6) | -1.12 °C | -1.23 °C
30 | MRPL41 (UniProt Q8IXM3) | 3.04 °C | 1.14 °C
31 | UniProt Q8IYH5 | -1.42 °C | -1.15 °C
32 | UBR7 (UniProt Q8N806) | 0.177 °C | -0.171 °C
33 | LYSMD2 (UniProt Q8IV50) | -1.13 °C | -1.1 °C
34 | UniProt Q8N0S6 | -1.62 °C | 0.675 °C
35 | BRSK2 (UniProt Q8IWQ3) | 1.19 °C | 1.49 °C
36 | SIRT6 (UniProt Q8N6T7) | -0.278 °C | -0.715 °C
37 | FOXRED2 (UniProt Q8IWF2) | -0.389 °C | -0.0537 °C
38 | UBR2 (UniProt Q8IWV8) | -0.339 °C | -0.179 °C
39 | UniProt Q86YR5 | -1.07 °C | -0.365 °C
40 | PNPLA6 (UniProt Q8IY17) | -0.561 °C | 0.495 °C
41 | FTSJ3 (UniProt Q8IY81) | -0.455 °C | -0.826 °C
42 | UniProt Q8IW92 | -2.41 °C | -0.527 °C
43 | KIAA2013 (UniProt Q8IYS2) | -3.52 °C | -3.76 °C
44 | ARHGAP12 (UniProt Q8IWW6) | 0.635 °C | -0.434 °C
45 | MINA (UniProt Q8IUF8) | 0.965 °C | 1.26 °C
46 | RALGPS2 (UniProt Q86X27) | 0.702 °C | -0.318 °C
47 | UniProt Q8N4X5 | 0.495 °C | 0.397 °C
48 | HDDC3 (UniProt Q8N4P3) | -1.5 °C | -0.871 °C

Row | Target | melting temperature shift (MBE1 concentration: 100 nM) | melting temperature shift (MBE1 concentration: 1 uM)
49 | RAB43 (UniProt Q86YS6) | -2.82 °C | -0.751 °C
50 | MICALL1 (UniProt Q8N3F8) | 0.672 °C | 0.702 °C
51 | UniProt Q8IWT3 | 1.04 °C | 0.562 °C
52 | MINK1 (UniProt Q8N4C8) | 0.256 °C | 0.672 °C
53 | PLCD3 (UniProt Q8N3E9) | 0.94 °C | 0.305 °C
54 | DHX40 (UniProt Q8IX18) | -1.74 °C | 1.19 °C
55 | UniProt Q8IYD8 | -0.249 °C | -2.13 °C
56 | SPATS2 (UniProt Q86XZ4) | 0.0855 °C | -0.0122 °C
57 | MIB1 (UniProt Q86YT6) | 0.711 °C | 1.1 °C
58 | GCC2 (UniProt Q8IWJ2) | -1.32 °C | -0.433 °C
59 | C8ORF59 (UniProt Q8N0T1) | -4.9 °C | -2.85 °C
60 | FAM177A1 (UniProt Q8N128) | -1.74 °C | 2.59 °C
61 | MFN1 (UniProt Q8IWA4) | 0.391 °C | -0.537 °C
62 | TMEM192 (UniProt Q8IY95) | -2.66 °C | -0.148 °C
63 | UniProt Q8IV63 | -1.98 °C | -3.48 °C
64 | PTGR2 (UniProt Q8N8N7) | 0.55 °C | 2.28 °C
65 | UniProt Q8IUC8 | 1.97 °C | 0.678 °C
66 | MAP7D3 (UniProt Q8IWC1) | 0.299 °C | 0.235 °C
67 | UniProt Q8IUX7 | -2.18 °C | -1.96 °C
68 | UniProt Q8IY63 | -1.09 °C | -0.339 °C
69 | UniProt Q8N5D0 | 1.4 °C | 0.256 °C
70 | UniProt Q8N612 | 0.171 °C | 0.653 °C
71 | UniProt Q8IY26 | -0.588 °C | -0.0122 °C
72 | PM20D2 (UniProt Q8IYS1) | -1.73 °C | 0.556 °C

Row | Target | melting temperature shift (MBE1 concentration: 100 nM) | melting temperature shift (MBE1 concentration: 1 uM)
73 | OTUD6B (UniProt Q8N6M0) | -1.21 °C | -0.348 °C
74 | CCDC25 (UniProt Q86WR0) | 0.586 °C | 0.684 °C
75 | ARHGAP18 (UniProt Q8N392) | -0.47 °C | -0.39 °C
76 | ANKHD1 (UniProt Q8IWZ3) | -1.07 °C | -0.0256 °C
77 | PROSER2 (UniProt Q86WR7) | 0.366 °C | -0.653 °C
78 | SCYL3 (UniProt Q8IZE3) | 2.34 °C | 1.19 °C
79 | UniProt Q8N302 | -1.46 °C | -0.584 °C
80 | RHOT1 (UniProt Q8IXI2) | -0.552 °C | -0.0122 °C
81 | UniProt Q86XE0 | 0.0794 °C | -0.641 °C
82 | AFAP1 (UniProt Q8N556) | -1.33 °C | -0.692 °C
83 | SMC5 (UniProt Q8IY18) | 0.33 °C | -0.0488 °C
84 | CACUL1 (UniProt Q86Y37) | -0.718 °C | -0.167 °C
85 | UniProt Q8IZ13 | 0.263 °C | 0.0244 °C
86 | GHDC (UniProt Q8N2G8) | -0.315 °C | 0.53 °C
87 | GLCCI1 (UniProt Q86VQ1) | -0.262 °C | -2.93 °C
88 | BPHL (UniProt Q86WA6) | -0.641 °C | -0.397 °C
89 | ELMOD2 (UniProt Q8IZ81) | -0.723 °C | 0.256 °C
90 | ANKLE2 (UniProt Q86XL3) | -1.5 °C | -1.13 °C
91 | UniProt Q8IVL6 | -0.751 °C | 0.232 °C
92 | UniProt Q8IX01 | -0.154 °C | -0.314 °C
93 | ARFGAP1 (UniProt Q8N6T3) | -0.574 °C | -0.941 °C
94 | UniProt Q8IY21 | 0.977 °C | 0.165 °C
95 | ANKRD44 (UniProt Q8N8A2) | 0.678 °C | 0.147 °C
96 | GATAD2A (UniProt Q86YP4) | -0.487 °C | -0.308 °C

Row | Target | melting temperature shift (MBE1 concentration: 100 nM) | melting temperature shift (MBE1 concentration: 1 uM)
97 | UniProt Q8IWK6 | 1.04 °C | -0.134 °C
98 | TRAPPC5 (UniProt Q8IUR0) | -0.672 °C | -0.721 °C
99 | TRMT2A (UniProt Q8IZ69) | -0.721 °C | 0.0769 °C
100 | GTPBP8 (UniProt Q8N3Z3) | -0.494 °C | -0.482 °C
101 | METTL13 (UniProt Q8N6R0) | -1.02 °C | -0.0659 °C
102 | LRRC47 (UniProt Q8N1G4) | -0.396 °C | -0.49 °C
103 | CHD1L (UniProt Q86WJ1) | -1.88 °C | -0.744 °C
104 | ITPRIP (UniProt Q8IWB1) | 1.14 °C | 0.977 °C
105 | UniProt Q8IVF7 | -0.475 °C | -0.598 °C
106 | IRF2BP1 (UniProt Q8IU81) | 0.468 °C | -0.135 °C
107 | ABHD12 (UniProt Q8N2K0) | -0.912 °C | 0.371 °C
108 | RYBP (UniProt Q8N488) | -1.42 °C | 0.0134 °C
109 | EHBP1L1 (UniProt Q8N3D4) | -0.0282 °C | -0.336 °C
110 | THNSL1 (UniProt Q8IYQ7) | -0.0805 °C | 0.153 °C
111 | RAVER1 (UniProt Q8IY67) | 0.0961 °C | 0.506 °C
112 | RPUSD2 (UniProt Q8IZ73) | -0.757 °C | -0.763 °C
113 | FAM114A1 (UniProt Q8IWE2) | -0.782 °C | 0.214 °C
114 | UEVLD (UniProt Q8IX04) | 0.946 °C | -1.2 °C
115 | ERC1 (UniProt Q8IUD2) | -1.39 °C | -0.409 °C
116 | UniProt Q8IWZ6 | 0 °C | 0.922 °C
117 | COMMD1 (UniProt Q8N668) | 1.63 °C | 0.491 °C
118 | WDFY1 (UniProt Q8IWB7) | -2.19 °C | 0.727 °C
119 | SIRT2 (UniProt Q8IXJ6) | 0.653 °C | 0.22 °C
120 | UniProt Q86YB8 | -0.53 °C | -0.583 °C

Pulled one by one from the entries so far:
Row | Target | melting temperature shift (MBE1 concentration: 100 nM) | melting temperature shift (MBE1 concentration: 1 uM)
103 | CHD1L (UniProt Q86WJ1) | -1.88 °C | -0.744 °C
108 | RYBP (UniProt Q8N488) | -1.42 °C | 0.0134 °C

Copied from the list:
For melting temperature shift (MBE1 concentration: 1 uM), WDFY3 (UniProt Q8IZQ1) has the entry -0.531 °C
For melting temperature shift (MBE1 concentration: 100 nM), VPS52 (UniProt Q8N1B4) has the entry -0.856 °C
For melting temperature shift (MBE1 concentration: 1 uM), FAM177A1 (UniProt Q8N128) has the entry 2.59 °C
For melting temperature shift (MBE1 concentration: 100 nM), CHD1L (UniProt Q86WJ1) has the entry -1.88 °C
